Screening data, single-dose tests

By UniProt entry, the sequences of proteins in these tests, tags left out.
UniProt P9WNZ1, whole entry: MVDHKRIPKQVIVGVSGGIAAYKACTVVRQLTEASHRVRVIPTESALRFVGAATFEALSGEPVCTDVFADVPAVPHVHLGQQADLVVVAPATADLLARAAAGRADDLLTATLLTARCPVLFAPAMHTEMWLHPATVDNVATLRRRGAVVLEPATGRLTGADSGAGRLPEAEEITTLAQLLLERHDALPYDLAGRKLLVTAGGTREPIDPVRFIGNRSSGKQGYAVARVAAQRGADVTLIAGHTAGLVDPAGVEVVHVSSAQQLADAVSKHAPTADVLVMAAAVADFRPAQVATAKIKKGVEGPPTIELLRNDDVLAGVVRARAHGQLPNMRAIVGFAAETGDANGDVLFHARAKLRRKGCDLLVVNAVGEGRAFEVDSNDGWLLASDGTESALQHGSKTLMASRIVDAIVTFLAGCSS
UniProt P9WFT3, whole entry: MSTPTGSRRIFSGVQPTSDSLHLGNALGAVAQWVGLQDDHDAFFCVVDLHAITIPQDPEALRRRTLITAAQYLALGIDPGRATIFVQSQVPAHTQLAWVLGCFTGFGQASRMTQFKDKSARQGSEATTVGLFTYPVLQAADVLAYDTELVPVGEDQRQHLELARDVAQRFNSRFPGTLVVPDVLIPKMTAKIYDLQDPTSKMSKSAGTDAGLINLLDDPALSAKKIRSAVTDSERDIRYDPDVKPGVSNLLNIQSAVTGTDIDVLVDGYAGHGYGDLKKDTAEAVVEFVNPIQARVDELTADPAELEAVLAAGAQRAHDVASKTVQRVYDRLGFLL

From ChEMBL document CHEMBL3988442, “University of Dundee, Small-Polar-MMV Screening Library” (2021).

CoaBC: 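Coenzyme A biosynthesis protein CoaBC, Mycobacterium tuberculosis (UniProt P9WNZ1). Enzyme assay of CoaBC with a phosphate dye (Biomol Green) read at 650 nm. Concentration: 30 µM. Higher reads as stronger inhibition, judged from the few compounds that gave an IC50. Most strong results did not repeat in a second test. Of about 67,000 compounds tested this way, about 40 (0.06%) reached 50% or more in at least one test.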
MtTrpRS: 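Enzyme assay of tryptophanyl-tRNA synthetase; the read-out is not stated. Target: Tryptophan-tRNA ligase, Mycobacterium tuberculosis (UniProt P9WFT3). Tested at 10 µM. Direction is not recorded; retested compounds ran higher, which suggests that high means inhibition. About 65,000 compounds were tested under these conditions; 0.098% (about 64) showed 50% or more at least once.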

Values are the deposited “Percent Effect”, in %.
How 0% and 100% were set is not recorded. Most values in the screen are low, and negative values occur.
Compounds were drawn at random from those tested, without regard to their results.
A dash means the value is not listed here; it may have been measured.

compound	CoaBC	MtTrpRS
Cc1ncc(CN)c(-c2cn(C)c3ccccc23)n1	2.184%	-4.581%
Cc1nn(C)c(C)c1C1CCCN1Cc1cn2ccsc2n1 (configuration not stated)	5.6%	1.699%
CC(C)C(NC(=O)C1CCCC1)c1cc(O)nc(-c2cccnc2)n1 (configuration not stated)	-11.86%	65.21%
COc1ccc(N(C)C(=O)c2ccc(Cl)c(S(C)(=O)=O)c2)cn1	-21.85%	-2.916%
CCC(O)CNC(=O)C1(N(C)Cc2ccccc2)Cc2ccccc2C1 (configuration not stated)	2.679%	-1.421%
CC(NCc1c(C(C)C)nn(C)c1N(C)C)C(=O)NC1CCCC1 (configuration not stated)	-11.41%	-3.072%
CNC(=O)[C@@H](c1ccccc1F)N1CCC[C@H]1C(=O)NC1CCOCC1	2.258%	-3.253%
CCCc1nc(NC2(COC)CCCC2)c2cnn(C)c2n1	8.908%	3.826%
Cc1cc(C2CCCN(Cc3nc(Cc4ccccc4)no3)C2)n[nH]1 (configuration not stated)	-5.018%	-1.212%
c1ccc(Oc2cccc(OC34CCCN(CC3)C4)c2)cc1 (configuration not stated)	5.511%	10.31%
COc1ccccc1OCc1cc(C(=O)N2[C@H](C)CC[C@@H]2C)n[nH]1	2.17%	4.524%
O=S(=O)(c1ccc(Cl)s1)N1CCN(Cc2nc(-c3ccco3)cs2)CC1	1.272%	-0.1961%
CN1CCCN(c2cnn(Cc3ccc(C(C)(C)C)cc3)c(=O)c2)CC1	6.683%	-3.527%
COc1cccc(CC(=O)N2CC[C@@H]3NC(=O)CC[C@@H]32)c1	0.2114%	-0.6342%
CNC(=O)COC1COC2(CCN(c3ccc(C)nn3)CC2)C1 (configuration not stated)	3.594%	-2.889%
Cc1ncoc1C(=O)N1CCOC(CCCC(C)C)C1 (configuration not stated)	2.581%	-0.5833%
O=C(CSc1ccccn1)NCc1ccc2c(c1)CCC(=O)N2	-2.57%	1.643%
Cc1cccc2c1nc(CCO)n2-c1ccc(C(=O)N2CCOCC2)o1	10.91%	1.509%
CN(Cc1ccncc1)C(=O)c1ccc2c(c1O)OC(C)(C)C2	4.069%	-0.6731%
c1n[nH]cc1CCCN1CCC(OC2CCCCC2)CC1	-19.12%	-1.815%
Cc1cccc(C(=O)N2CCn3c(CN4CCN(C)CC4)cnc3C2)n1	4.061%	-6.996%
Cc1nnsc1-c1nnc2sc(C(C)C)nn12	-21.88%	1.214%
O=C(CN1CSCC1=O)NCC1CCN(c2ccccc2)C1 (configuration not stated)	2.479%	-2.805%
COc1cccc2c1OCC(NC(=O)NCCC(N)=O)C2 (configuration not stated)	1.713%	-1.527%
CCOCCOC(C)C(=O)Nc1ccc2c(ccn2CC)c1 (configuration not stated)	10.36%	0.2865%
CS(=O)(=O)NCCC(=O)Nc1cnn(-c2ccccc2Cl)c1	3.316%	-6.789%
CS(=O)(=O)N1CCN(CC(=O)Nc2cccc(Cl)c2)CC1	7.52%	0.08333%
CC(NC(=O)CSCC#N)c1cccc(NC(=O)c2ccccc2)c1 (configuration not stated)	3.172%	7.31%
CC(C)C(=O)NC1CCCN(C(=O)c2ccccc2O)C1 (configuration not stated)	11.8%	2.982%
COCCN(Cc1nccs1)c1nc2c(s1)c(C)nn2C	-2.433%	0.2179%
CCn1cnnc1CNC(=O)c1ccc(Br)cc1F	0.3686%	0.9031%
c1ccc2oc(CCCN3CCOC(Cn4cccn4)C3)nc2c1 (configuration not stated)	-4.103%	-0.5473%
Cc1ccc(CCC(=O)N2CCOCC2)cc1Cl	-1.594%	-1.051%
Cc1ccc(C)c(CC(=O)Nc2cnccc2SCCCO)c1	6.807%	-3.187%
CCn1cc(NC(=O)C2CCN(Cc3nc(C(C)C)no3)CC2)cn1	8.82%	7.052%
COCCN(Cc1ccc(C)o1)C(=O)Nc1nnc(C(F)F)s1	2.457%	-0.07468%
Cc1cccc(C)c1OCCNC(=O)CNC(=O)C1CCCC1	2.415%	-1.273%
COCC(=O)NC(CC(C)C)c1nc2cccnc2n1C (configuration not stated)	-0.1227%	1.447%
Cc1cccnc1CNCC1(O)CCCN(Cc2ccc(F)cc2)C1=O (configuration not stated)	-0.8772%	4.094%
CCNC(=O)[C@@H]1CCCN1[C@@H](C(=O)NC)C1CC1	6.998%	-2.184%
CCC1c2ccsc2CCN1C(=O)NCc1cccnc1OC (configuration not stated)	8.684%	-2.005%
CCS(=O)(=O)N1C[C@H]2CN(Cc3ccc(OC)cc3)C(=O)[C@H]2C1	0.1318%	-0.5089%
CCCn1cc(C(=O)NC(CC(=O)O)c2ccccc2F)c(C)n1 (configuration not stated)	1.6%	16.01%
Cc1ccc(NC(=O)CS(=O)(=O)NC2CCC(C)CC2)nc1 (configuration not stated)	8.696%	-1.966%
CC(C)CCN(C(=O)c1cccc(NC(N)=O)c1)C1CC1	-1.988%	0.6606%
CC(C)c1nc(CN(C)C(=O)CNC(N)=O)cs1	-3.194%	-1.867%
Cc1cc(NC(C)c2nnn[nH]2)n2nc(C)c(C)c2n1 (configuration not stated)	-5.484%	-2.495%
Cc1ncccc1CNC(CCO)C1CCCCC1 (configuration not stated)	-1.703%	-0.07262%
CCOCCOc1ccccc1C(=O)N1CCCC(c2ncc[nH]2)C1 (configuration not stated)	1.066%	-3.92%
C[C@@H](NC(=O)c1cnccn1)c1c(-c2ccc(F)cc2)noc1C(=O)O	9.707%	-3.389%
Cc1noc(C)c1CNC(=O)N1CCC(C(O)c2ccccc2)CC1 (configuration not stated)	6.237%	2.385%
Cc1cnn(C2CN(Cc3nnc(Cc4ccccc4)o3)C2)c1	-0.9724%	1.687%
CC1(C(=O)N2CCOCC2)CN(Cc2cccnc2)CCO1 (configuration not stated)	1.961%	-
O=C(c1cccnc1)N1C[C@@H]2OCCN(CCN3CCCC3)[C@@H]2C1	1.75%	0.3127%
COc1ccc(C(=O)N2CCN(CCO)CC2)c(F)c1	1.673%	-2.611%
COC(=O)CCN1CCCC1c1ccccc1Cl (configuration not stated)	-12.05%	-6.039%
COc1ccc(-n2ncc(C(C)NC3CCOCC3)c2C)cc1 (configuration not stated)	0.9091%	-2.082%
Cc1cccc(=O)n1CCCNc1ncnc2c1CCNCC2	-25.25%	3.667%
O=C(O)[C@@H]1CN(C2CCOCC2)C[C@H]1C1CC1	1.961%	-8.333%
COc1c(C)cnc(CN2CCC(C(=O)N(C)C)CC2)c1C	1.928%	-0.8793%
CCCNC(=O)CN1CCN(c2nc(CC)ns2)CC1	5.122%	7.64%
O=C(c1cc(C2CC2)[nH]n1)N1CCN(Cc2ccncc2)CC1	9.868%	-3.899%
COc1cccc(-c2c[nH]c(C3CCCN3)n2)c1 (configuration not stated)	-	0.3027%
CC(O)c1cccc(Nc2nc(NCCO)c3ccccc3n2)c1 (configuration not stated)	5.102%	-0.5092%
Cc1cc(N2CCC(O)(C(=O)O)CC2)nc2ccccc12	3.163%	-1.816%
Nc1ncccc1CN1C[C@H]2OC(=O)N(Cc3ccccn3)[C@H]2C1	2.066%	-4.159%
CCN1CCC(CNC(=O)C(c2ccccc2F)N(C)C)(N(C)C)CC1 (configuration not stated)	-	-2.321%
CCN(Cc1ccc(C(C)=O)cc1)CC1CCOCC1	-4.665%	1.586%
CC(Cn1ccnc1)NC(=O)N(C)Cc1ccc2c(c1)OCO2 (configuration not stated)	-2.5%	3.115%
Cc1ncsc1C(=O)N1CCCN(Cc2cscn2)CC1	3.077%	-2.267%
COCCNc1nc(N2CCOCC2)nc2nccnc12	6.214%	-4.146%
O=C(NCc1nnc2n1CCC2)c1cccc(Br)c1	2.39%	-0.6803%
O=C(NCC1CCCO1)c1nc2c(s1)CCCN2Cc1ccccc1 (configuration not stated)	-5.549%	-0.266%
CSc1nc(C2CC2)nc(C)c1C(=O)NCc1cc(C)on1	-6.388%	0.8974%
Cc1ccc(CN2CCC3(CC2)C(=O)N(C)c2ccccc23)s1	0.207%	-5.629%
COc1ncc(NCc2ccsc2)cc1C(N)=O	7.006%	9.918%
CCOc1ccc(CN(CCOC)c2nc(C)nc3oc(C)nc23)cc1	6.237%	-3.445%
c1cc(CN2CCC(n3cc(CN4CCCC4)nn3)CC2)cs1	-1.716%	-2.469%

Some entries from above, unchanged:

- COCCNc1nc(N2CCOCC2)nc2nccnc12 | CoaBC: 6.214%; MtTrpRS: -4.146%
- CC(O)c1cccc(Nc2nc(NCCO)c3ccccc3n2)c1 (configuration not stated) | CoaBC: 5.102%; MtTrpRS: -0.5092%
- O=C(CSc1ccccn1)NCc1ccc2c(c1)CCC(=O)N2 | CoaBC: -2.57%; MtTrpRS: 1.643%
- CCS(=O)(=O)N1C[C@H]2CN(Cc3ccc(OC)cc3)C(=O)[C@H]2C1 | CoaBC: 0.1318%; MtTrpRS: -0.5089%
- CS(=O)(=O)NCCC(=O)Nc1cnn(-c2ccccc2Cl)c1 | CoaBC: 3.316%; MtTrpRS: -6.789%
- O=C(O)[C@@H]1CN(C2CCOCC2)C[C@H]1C1CC1 | CoaBC: 1.961%; MtTrpRS: -8.333%
- Cc1nn(C)c(C)c1C1CCCN1Cc1cn2ccsc2n1 (configuration not stated) | CoaBC: 5.6%; MtTrpRS: 1.699%
- COc1c(C)cnc(CN2CCC(C(=O)N(C)C)CC2)c1C | CoaBC: 1.928%; MtTrpRS: -0.8793%